Reference: PubChem BioAssay AID686938 (Drosophila RNAi Screening Center, 2013)
Screen: 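Looking for CRAC channel components and the factors controlling them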 (primary screen). Cells: Drosophila S2R+ cells. Reagent: long dsRNA against Drosophila genes, about 0.25 µg dsRNA per well, roughly 10,000 cells. Timing: 5 days of knock-down before the calcium assay. Conditions: thapsigargin (SERCA pump blocker) to empty calcium stores; entry signal taken 4 min after adding it. Read-out: 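Per-well fluo-4 fluorescence in two replicates, unnormalised, measured in resting cells and 4 min after store depletion by the SERCA blocker thapsigargin; ratio of the two present in few wells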. Reading the numbers: calcium entry signal: higher = stronger calcium signal after store depletion; resting calcium signal: higher = higher resting calcium signal. Units: calcium entry signal in fluorescence units; resting calcium signal in fluorescence units. Call rule: 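Called when the plate z-score of the entry-to-rest ratio, mean of duplicates, falls below −3; wells with low overall dye signal (Fmax z below −2) or more than five off-targets excluded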. Calls: active = strongly reduced calcium entry; inactive = no strong reduction.
In all, the deposit lists about 23,000 reagents; this is an unselected part of those with a known target gene and a result. In the full data, 75 (0.33%) are marked active. 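Raw plate signals without normalisation; calls rest on plate z-scores that were not deposited; ratio present for only 364 wells.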 Entries without a mark were called inactive. A plus sign joins genes that one reagent is predicted to hit. Reagent sequences are not shown. The record does not give: the dose of the treatment.

gene	dsRNA	calcium entry signal, replicate 1	calcium entry signal, replicate 2	resting calcium signal, replicate 1	resting calcium signal, replicate 2
CG11889 + CG11891	DRSC14426	3.75e7	5.45e7	2.00e7	2.19e7
CG11889 + CG11891	DRSC14427	3.37e7	5.34e7	1.84e7	2.11e7
Cdk4	DRSC07358	3.92e7	3.54e7	1.85e7	1.89e7
dpr15	DRSC12891	4.16e7	3.58e7	2.10e7	1.76e7
dpr15	DRSC14187	2.37e7	2.35e7	1.21e7	1.31e7
dpr15	DRSC14188	1.93e7	2.28e7	1.04e7	1.22e7
Sik3	DRSC06505	5.81e7	6.80e7	2.48e7	3.09e7
Sik3	DRSC06771	3.40e7	3.77e7	1.67e7	1.64e7
CG16734	DRSC15143	3.55e7	2.97e7	2.18e7	1.62e7
Or47b	DRSC07492	2.98e7	3.53e7	1.56e7	1.60e7
bisc	DRSC04083	4.59e7		2.29e7	
CG15127	DRSC05802	2.49e7	2.74e7	1.22e7	1.39e7
CG15127	DRSC06549	5.49e7	5.49e7	2.31e7	2.53e7
Uch	DRSC00797	3.64e7		1.90e7	
CG4291	DRSC00650	4.35e7		2.46e7	
glob3	DRSC12261	4.49e7	5.50e7	2.15e7	2.57e7
Klp68D	DRSC11206	4.48e7	3.13e7	3.12e7	1.39e7
Ank	DRSC17127	3.15e7	3.26e7	1.44e7	1.48e7
CG9240	DRSC20177	2.98e7	3.62e7	1.56e7	1.54e7
Golgin97	DRSC06895	2.50e7	2.62e7	1.12e7	1.26e7
Tektin-C	DRSC09741	2.17e7	2.40e7	1.18e7	1.31e7
wts	DRSC17096	2.69e7	4.56e7	1.79e7	2.36e7
wts	DRSC22975	4.93e7	3.43e7	2.62e7	1.47e7
dcma	DRSC00246	3.91e7	4.05e7	2.06e7	1.93e7
dcma	DRSC00338	3.47e7	3.06e7	1.70e7	1.50e7
CG7692	DRSC10902	4.47e7	6.26e7	1.99e7	2.64e7
Trs33	DRSC15990	3.69e7	5.20e7	1.77e7	5.96e7
BuGZ	DRSC02642	3.33e7		1.81e7	
BuGZ	DRSC02643	3.47e7	2.29e7	1.69e7	1.09e7
AOX2	DRSC15338	2.60e7	5.44e7	1.41e7	5.41e7
CG14135	DRSC10140	2.27e7	3.85e7	1.18e7	1.74e7
Sap47	DRSC16850	1.59e7	2.14e7	8.17e6	9.57e6
tim	DRSC00841	3.90e7		2.44e7	
pont	DRSC17029	2.35e7	2.48e7	1.49e7	1.63e7
COX6AL2	DRSC10082	1.96e7	3.17e7	9.51e6	1.50e7
knk	DRSC15993	2.77e7	2.12e7	1.45e7	1.09e7
CG5882	DRSC15907	3.87e7	5.80e7	2.00e7	2.50e7
MBD-like	DRSC16996	3.87e7	3.47e7	1.78e7	1.80e7
cas	DRSC12373	4.88e7	3.06e7	2.38e7	1.60e7
spt4	DRSC07696	3.19e7	3.18e7	1.44e7	1.40e7

Laid out differently: 3 of the entries above
gene,dsRNA,"calcium entry signal, replicate 1","calcium entry signal, replicate 2","resting calcium signal, replicate 1","resting calcium signal, replicate 2"
CG15127,DRSC06549,5.49e7,5.49e7,2.31e7,2.53e7
Uch,DRSC00797,3.64e7,,1.90e7,
CG4291,DRSC00650,4.35e7,,2.46e7,
